Experimental data from the supplement of paper PMC12067093, “Discovery and optimisation of a covalent ligand for TRIM25 and its application to targeted protein ubiquitination” (Chemical Science, 2025).
The list shows a part of the results.

compound: Cc1cc(ccc1-c1ccccc1)C(=O)N1CCCN(CC1)C(=O)CCl [compound 10]; experiment: probe-labelled cysteine peptide fold change vs DMSO (competition) (log2 fold change); higher = less target engagement (more negative = stronger competition); conditions: 10 µM; THP-1; incubation time: 4 h
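Note: competitive profiling in live THP-1 cells: cysteine peptides tagged with an iodoacetamide desthiobiotin (IA-DTB) probe, intensity after compound treatment relative to DMSO-treated cells.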

Row | Target | probe-labelled cysteine peptide fold change
1 | NBN_O60934_31_NCAILIENDQSISR (UniProt O60934) | 0.173
2 | NAA15_Q9BXJ9_238_LAVEETKGELLLQLCR (UniProt Q9BXJ9) | -0.199
3 | NBAS_A2RRP1_1777_LQYYFTLLENCGCADLGNCAIKPETHIR (UniProt A2RRP1) | -0.104
4 | NCAPH2_Q6IBW4_184_MNTCVPHPR (UniProt Q6IBW4) | -0.277
5 | NARS2_Q96I59_359_HCGNIPVFVINYPLTLK (UniProt Q96I59) | 0.0898
6 | MYO6_Q9UM54_514_EGLGVNEVHYVDNQDCIDLIEAK (UniProt Q9UM54) | -0.0692
7 | NAA30_Q147X3_195_LLSSSLTADCSLR (UniProt Q147X3) | -0.082
8 | MYO9B_Q13459_152_QQADFDDLCNLPELTEGNLLK (UniProt Q13459) | -0.132
9 | MYO1G_B0I1T2_618_LDENHCR (UniProt B0I1T2) | 0.223
10 | NAPRT_Q6XQN6_484_LCLQQGQLCEPLPSLAESR (UniProt Q6XQN6) | 0.0212
11 | NAA16_Q6N069_465_EAEEMCSK (UniProt Q6N069) | -0.079
12 | NAXD_Q8IW45_261_GERDILSNGQQVLVCSQEGSSR (UniProt Q8IW45) | 0.321
13 | MYOF_Q9NZM1_1553_ELPDSVPQECTVR (UniProt Q9NZM1) | -0.0698
14 | NCAPD3_P42695_588_HCDVSGMKEDLWILQDQCRDPAVSVR (UniProt P42695) | -0.104
15 | NADSYN1_Q6IA69_416_ILTTCYMASK (UniProt Q6IA69) | -0.139
16 | N4BP2_Q86UW6_1561_DHNYSLEHTVQFLNCVLEGDPVK (UniProt Q86UW6) | -0.107
17 | NCAPD3_P42695_143_CIQTLK (UniProt P42695) | 0.0679
18 | MYO9B_Q13459_1665_ALLCSVCK (UniProt Q13459) | -0.0508
19 | MYO6_Q9UM54_375_SAQSLEYCAELLGLDQDDLR (UniProt Q9UM54) | -0.143

Row | Target | probe-labelled cysteine peptide fold change
20 | NAA10_P41227_21_NARPEDLMNMQHCNLLCLPENYQMK (UniProt P41227) | 0.122
21 | NADSYN1_Q6IA69_627_HICTPR (UniProt Q6IA69) | -0.683
22 | NARS_O43776_342_HLAEYTHVEAECPFLTFDDLLNR (UniProt O43776) | 0.59
23 | NADK_O95544_69_SLHGPCPVTTFGPK (UniProt O95544) | -0.122
24 | NCAM2_O15394_380_YDCEAASR (UniProt O15394) | 0.118
25 | NANP_Q8TBE9_49_YHYKEEAEIICDK (UniProt Q8TBE9) | 0.0417
26 | MYOF_Q9NZM1_1574_GLELQPQDNNGLCDPYIK (UniProt Q9NZM1) | 0.0635
27 | NBEAL2_Q6ZNJ1_822_TLCTLGPNETAPFKPEGELHELSTR (UniProt Q6ZNJ1) | -0.232
28 | NBAS_A2RRP1_1634_QLHCYNER (UniProt A2RRP1) | 0.0234
29 | NARS_O43776_511_YGTCPHGGYGLGLER (UniProt O43776) | -0.508
30 | NCAPH_Q15003_114_FTNTQITEHYSTCIK (UniProt Q15003) | 0.194
31 | NANS_Q9NR45_19_WVGGQHPCFIIAEIGQNHQGDLDVAK (UniProt Q9NR45) | 0.0873
32 | NAT1_P18440_223+233_SFCSLQTPDGVHCLVGFTLTHR (UniProt P18440) | 0.158
33 | NAP1L4_Q99733_77_CAHIEAK (UniProt Q99733) | 0.0717
34 | NCAPG_Q9BPX3_177_LQDPKDDECPVVNAYATLIENDSNPEVR (UniProt Q9BPX3) | -0.282
35 | MYO18A_Q92614_604_RPASEATFNVFYYLLACGDGTLR (UniProt Q92614) | 0.123
36 | NAP1L1_P55209_88_CAQIEAK (UniProt P55209) | -0.0583
37 | MYO6_Q9UM54_1265_CGGIQYLQNAIESR (UniProt Q9UM54) | -0.0129
38 | NAB2_Q15742_481_LSPCVPAKPPLAEFEEGLLDR (UniProt Q15742) | 0.0997

same assay, conditions: 50 µM; THP-1; incubation time: 4 h

Row | Target | probe-labelled cysteine peptide fold change
39 | NBN_O60934_31_NCAILIENDQSISR (UniProt O60934) | 0.051
40 | NAA15_Q9BXJ9_238_LAVEETKGELLLQLCR (UniProt Q9BXJ9) | -0.704
41 | NBAS_A2RRP1_1777_LQYYFTLLENCGCADLGNCAIKPETHIR (UniProt A2RRP1) | 0.102
42 | NCAPH2_Q6IBW4_184_MNTCVPHPR (UniProt Q6IBW4) | 0.0782
43 | NARS2_Q96I59_359_HCGNIPVFVINYPLTLK (UniProt Q96I59) | 0.878
44 | MYO6_Q9UM54_514_EGLGVNEVHYVDNQDCIDLIEAK (UniProt Q9UM54) | 0.0844
45 | NAA30_Q147X3_195_LLSSSLTADCSLR (UniProt Q147X3) | -0.15
46 | MYO9B_Q13459_152_QQADFDDLCNLPELTEGNLLK (UniProt Q13459) | 0.199
47 | MYO1G_B0I1T2_618_LDENHCR (UniProt B0I1T2) | -0.00724
48 | NAPRT_Q6XQN6_484_LCLQQGQLCEPLPSLAESR (UniProt Q6XQN6) | 0.0213
49 | NAA16_Q6N069_465_EAEEMCSK (UniProt Q6N069) | -0.0615
50 | NAXD_Q8IW45_261_GERDILSNGQQVLVCSQEGSSR (UniProt Q8IW45) | 0.0807
51 | MYOF_Q9NZM1_1553_ELPDSVPQECTVR (UniProt Q9NZM1) | 0.0265
52 | NCAPD3_P42695_588_HCDVSGMKEDLWILQDQCRDPAVSVR (UniProt P42695) | -0.377
53 | NADSYN1_Q6IA69_416_ILTTCYMASK (UniProt Q6IA69) | -0.22
54 | N4BP2_Q86UW6_1561_DHNYSLEHTVQFLNCVLEGDPVK (UniProt Q86UW6) | -0.591
55 | NCAPD3_P42695_143_CIQTLK (UniProt P42695) | 0.134
56 | MYO9B_Q13459_1665_ALLCSVCK (UniProt Q13459) | 0.0316
57 | MYO6_Q9UM54_375_SAQSLEYCAELLGLDQDDLR (UniProt Q9UM54) | -0.375

Row | Target | probe-labelled cysteine peptide fold change
58 | NAA10_P41227_21_NARPEDLMNMQHCNLLCLPENYQMK (UniProt P41227) | -0.163
59 | NADSYN1_Q6IA69_627_HICTPR (UniProt Q6IA69) | 0.168
60 | NARS_O43776_342_HLAEYTHVEAECPFLTFDDLLNR (UniProt O43776) | 0.656
61 | NADK_O95544_69_SLHGPCPVTTFGPK (UniProt O95544) | -0.362
62 | NCAM2_O15394_380_YDCEAASR (UniProt O15394) | 0.298
63 | NANP_Q8TBE9_49_YHYKEEAEIICDK (UniProt Q8TBE9) | -0.162
64 | MYOF_Q9NZM1_1574_GLELQPQDNNGLCDPYIK (UniProt Q9NZM1) | 0.245
65 | NBEAL2_Q6ZNJ1_822_TLCTLGPNETAPFKPEGELHELSTR (UniProt Q6ZNJ1) | -0.31
66 | NBAS_A2RRP1_1634_QLHCYNER (UniProt A2RRP1) | -0.116
67 | NARS_O43776_511_YGTCPHGGYGLGLER (UniProt O43776) | 0.139
68 | NCAPH_Q15003_114_FTNTQITEHYSTCIK (UniProt Q15003) | -0.273
69 | NANS_Q9NR45_19_WVGGQHPCFIIAEIGQNHQGDLDVAK (UniProt Q9NR45) | -0.181
70 | NAT1_P18440_223+233_SFCSLQTPDGVHCLVGFTLTHR (UniProt P18440) | 0.168
71 | NAP1L4_Q99733_77_CAHIEAK (UniProt Q99733) | 0.0178
72 | NCAPG_Q9BPX3_177_LQDPKDDECPVVNAYATLIENDSNPEVR (UniProt Q9BPX3) | 0.398
73 | MYO18A_Q92614_604_RPASEATFNVFYYLLACGDGTLR (UniProt Q92614) | 0.668
74 | NAP1L1_P55209_88_CAQIEAK (UniProt P55209) | -0.0287
75 | MYO6_Q9UM54_1265_CGGIQYLQNAIESR (UniProt Q9UM54) | 0.0704
76 | NAB2_Q15742_481_LSPCVPAKPPLAEFEEGLLDR (UniProt Q15742) | -0.905
